Experimental findings from paper PMC3937775 are described below.

These are yes or no findings as the source states them, for the method shown. In cells and extracts the contact can be indirect. Some entries that bind do so weakly or less than the wild type. For some assays here: Sequences can lack the tags named with a protein.

For assay [1], the target named is T1, FLAG–ELL (human), P55199.
T1 chain: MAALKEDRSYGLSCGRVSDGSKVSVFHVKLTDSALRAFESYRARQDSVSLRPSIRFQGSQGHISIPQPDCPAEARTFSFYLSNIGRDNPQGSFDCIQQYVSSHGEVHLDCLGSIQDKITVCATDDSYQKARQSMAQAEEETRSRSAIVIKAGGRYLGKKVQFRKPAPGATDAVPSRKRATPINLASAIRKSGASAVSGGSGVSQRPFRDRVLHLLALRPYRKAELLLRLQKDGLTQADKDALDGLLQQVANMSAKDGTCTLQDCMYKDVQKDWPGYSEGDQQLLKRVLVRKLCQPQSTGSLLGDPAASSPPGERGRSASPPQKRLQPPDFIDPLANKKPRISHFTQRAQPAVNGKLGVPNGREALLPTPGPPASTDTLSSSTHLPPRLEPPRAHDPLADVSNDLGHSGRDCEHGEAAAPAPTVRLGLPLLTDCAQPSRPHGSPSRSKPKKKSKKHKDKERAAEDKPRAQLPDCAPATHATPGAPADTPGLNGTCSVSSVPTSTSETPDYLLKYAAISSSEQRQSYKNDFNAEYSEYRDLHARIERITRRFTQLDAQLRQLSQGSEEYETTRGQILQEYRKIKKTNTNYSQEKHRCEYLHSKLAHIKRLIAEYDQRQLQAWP
The assay is described as follows: co-IP; anti-FLAG immunoprecipitation from total lysate of HEK293 cells 24 hours after transfection with FLAG–ELL and HA–USPL1; lysis buffer 50 mM Tris-HCl pH 7.5, 150 mM NaCl, 1% NP40, 5 mM EDTA, 5 mM EGTA, 1 mM DTT; 3 hours; immunoblot with anti-HA and anti-FLAG. As to conditions: remark: other sources report otherwise. (In general: A western blot detects proteins with antibodies after separation by electrophoresis.)

The target in assay [2] is T2, endogenous USPL1 (human (endogenous in HEK293 and HeLa)), Q5W0Q7.
T2 chain: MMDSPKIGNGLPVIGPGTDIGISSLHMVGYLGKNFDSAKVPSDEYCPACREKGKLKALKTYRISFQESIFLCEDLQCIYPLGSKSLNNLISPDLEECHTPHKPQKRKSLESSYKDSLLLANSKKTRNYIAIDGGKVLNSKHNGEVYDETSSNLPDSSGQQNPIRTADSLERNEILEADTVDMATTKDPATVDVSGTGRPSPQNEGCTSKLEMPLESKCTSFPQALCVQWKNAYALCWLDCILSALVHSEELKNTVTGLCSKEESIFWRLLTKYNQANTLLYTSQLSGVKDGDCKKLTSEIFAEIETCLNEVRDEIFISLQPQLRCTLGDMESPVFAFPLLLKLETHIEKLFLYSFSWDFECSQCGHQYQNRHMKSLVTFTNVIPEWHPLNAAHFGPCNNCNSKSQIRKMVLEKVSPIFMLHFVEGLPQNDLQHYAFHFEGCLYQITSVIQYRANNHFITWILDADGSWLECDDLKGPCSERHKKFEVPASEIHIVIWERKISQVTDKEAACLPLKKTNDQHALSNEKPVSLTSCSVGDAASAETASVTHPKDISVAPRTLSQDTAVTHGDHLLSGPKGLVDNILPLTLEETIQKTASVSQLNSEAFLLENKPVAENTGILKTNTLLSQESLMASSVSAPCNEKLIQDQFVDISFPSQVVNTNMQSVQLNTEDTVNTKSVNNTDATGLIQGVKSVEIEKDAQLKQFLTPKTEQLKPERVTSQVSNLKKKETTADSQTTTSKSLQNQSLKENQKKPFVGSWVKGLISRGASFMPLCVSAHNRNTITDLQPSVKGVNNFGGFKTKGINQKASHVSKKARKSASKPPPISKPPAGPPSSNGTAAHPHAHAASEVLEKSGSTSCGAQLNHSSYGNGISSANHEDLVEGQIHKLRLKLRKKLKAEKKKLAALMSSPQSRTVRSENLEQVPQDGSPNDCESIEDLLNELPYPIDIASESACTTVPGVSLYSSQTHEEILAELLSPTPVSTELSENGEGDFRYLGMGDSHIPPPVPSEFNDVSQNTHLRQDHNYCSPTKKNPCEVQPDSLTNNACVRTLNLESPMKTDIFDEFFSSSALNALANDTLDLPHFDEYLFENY
Briefly: co-IP; anti-USPL1 immunoprecipitation of endogenous USPL1 from total lysate of HEK293 or HeLa cells; lysis buffer 50 mM Tris-HCl pH 7.5, 150 mM NaCl, 1% NP40, 5 mM EDTA, 5 mM EGTA, 1 mM DTT; empty Protein-G-agarose beads as control; immunoblot with ELL antibody. To be noted: remark: other sources report otherwise.

B1: HA–USPL1, Q5W0Q7 1-1092 (protein)
chain: MMDSPKIGNGLPVIGPGTDIGISSLHMVGYLGKNFDSAKVPSDEYCPACREKGKLKALKTYRISFQESIFLCEDLQCIYPLGSKSLNNLISPDLEECHTPHKPQKRKSLESSYKDSLLLANSKKTRNYIAIDGGKVLNSKHNGEVYDETSSNLPDSSGQQNPIRTADSLERNEILEADTVDMATTKDPATVDVSGTGRPSPQNEGCTSKLEMPLESKCTSFPQALCVQWKNAYALCWLDCILSALVHSEELKNTVTGLCSKEESIFWRLLTKYNQANTLLYTSQLSGVKDGDCKKLTSEIFAEIETCLNEVRDEIFISLQPQLRCTLGDMESPVFAFPLLLKLETHIEKLFLYSFSWDFECSQCGHQYQNRHMKSLVTFTNVIPEWHPLNAAHFGPCNNCNSKSQIRKMVLEKVSPIFMLHFVEGLPQNDLQHYAFHFEGCLYQITSVIQYRANNHFITWILDADGSWLECDDLKGPCSERHKKFEVPASEIHIVIWERKISQVTDKEAACLPLKKTNDQHALSNEKPVSLTSCSVGDAASAETASVTHPKDISVAPRTLSQDTAVTHGDHLLSGPKGLVDNILPLTLEETIQKTASVSQLNSEAFLLENKPVAENTGILKTNTLLSQESLMASSVSAPCNEKLIQDQFVDISFPSQVVNTNMQSVQLNTEDTVNTKSVNNTDATGLIQGVKSVEIEKDAQLKQFLTPKTEQLKPERVTSQVSNLKKKETTADSQTTTSKSLQNQSLKENQKKPFVGSWVKGLISRGASFMPLCVSAHNRNTITDLQPSVKGVNNFGGFKTKGINQKASHVSKKARKSASKPPPISKPPAGPPSSNGTAAHPHAHAASEVLEKSGSTSCGAQLNHSSYGNGISSANHEDLVEGQIHKLRLKLRKKLKAEKKKLAALMSSPQSRTVRSENLEQVPQDGSPNDCESIEDLLNELPYPIDIASESACTTVPGVSLYSSQTHEEILAELLSPTPVSTELSENGEGDFRYLGMGDSHIPPPVPSEFNDVSQNTHLRQDHNYCSPTKKNPCEVQPDSLTNNACVRTLNLESPMKTDIFDEFFSSSALNALANDTLDLPHFDEYLFENY
For B1, the binding entry in assay [1] was “binds”.

B2: endogenous ELL, P55199 1-621 (protein)
chain: MAALKEDRSYGLSCGRVSDGSKVSVFHVKLTDSALRAFESYRARQDSVSLRPSIRFQGSQGHISIPQPDCPAEARTFSFYLSNIGRDNPQGSFDCIQQYVSSHGEVHLDCLGSIQDKITVCATDDSYQKARQSMAQAEEETRSRSAIVIKAGGRYLGKKVQFRKPAPGATDAVPSRKRATPINLASAIRKSGASAVSGGSGVSQRPFRDRVLHLLALRPYRKAELLLRLQKDGLTQADKDALDGLLQQVANMSAKDGTCTLQDCMYKDVQKDWPGYSEGDQQLLKRVLVRKLCQPQSTGSLLGDPAASSPPGERGRSASPPQKRLQPPDFIDPLANKKPRISHFTQRAQPAVNGKLGVPNGREALLPTPGPPASTDTLSSSTHLPPRLEPPRAHDPLADVSNDLGHSGRDCEHGEAAAPAPTVRLGLPLLTDCAQPSRPHGSPSRSKPKKKSKKHKDKERAAEDKPRAQLPDCAPATHATPGAPADTPGLNGTCSVSSVPTSTSETPDYLLKYAAISSSEQRQSYKNDFNAEYSEYRDLHARIERITRRFTQLDAQLRQLSQGSEEYETTRGQILQEYRKIKKTNTNYSQEKHRCEYLHSKLAHIKRLIAEYDQRQLQAWP
B2: in assay [2], the binding result is “binds”.
